Measurements from PubChem BioAssay AID248 (DTP/NCI, 2004).
The list does not hold the whole screen: it is rich in T/C values a quarter to a half above the control, in often repeated tests (any T/C) and in doses without a T/C. Further doses and runs are listed elsewhere. T/C is the treated group as % of the vehicle group. Some doses have a count of surviving animals in place of a T/C: the source files T/C as zero there, which appears to mark a toxic dose or a test without result, not a measured value. Some survivor counts are full or nearly so, which does not show that the dose was tolerated: the source hardly ever lists a survival T/C far under the control, and the zero likely stands for such cases as well. Survivors were counted at the toxicity check, usually on the fifth day, unless a day is given; later deaths do not show. Schedules are NCI's codes, read here as Q, the interval in days (D) or hours (H), X, the number of doses. Some schedule codes hold Z or #, which are not explained here. Some entries hold several experiments; the results are listed from low to high. Where survival is the endpoint, the PubChem record calls one and a half times the control and up active, and a quarter to a half above the control has no call in these data; cut-offs in other NCI protocols can differ.

System: L1210 leukemia ip in BDF1 mice, survival T/C
Test: NCI In Vivo Anticancer Drug Screen. Data for tumor model L1210 Leukemia (intraperitoneal) in B6D2F1 (BDF1) mice
Settings: T/C endpoint: mean survival time, higher T/C = longer survival
[1] = dose: 400.0 mg/kg/injection, schedule: Q04DX003 (ip), vehicle: Klucel (hydroxypropylcellulose) (HPC)
[2] = dose: 400.0 mg/kg/injection, schedule: Q04DX003 (ip), vehicle: saline with Tween-80
[3] = dose: 400.0 mg/kg/injection, schedule: Q01DX009 (ip), vehicle: Klucel (hydroxypropylcellulose) (HPC)
[4] = dose: 400.0 mg/kg/injection, schedule: Q01DX001 (ip), vehicle: saline
[5] = dose: 100.0 mg/kg/injection, schedule: Q01DX009 (ip), vehicle: saline
[6] = dose: 400.0 mg/kg/injection, schedule: Q04DX003 (ip), vehicle: saline
[7] = dose: 100.0 mg/kg/injection, schedule: Q04DX002 (ip), vehicle: saline with Tween-80
[8] = dose: 200.0 mg/kg/injection, schedule: Q04DX002 (ip), vehicle: saline with Tween-80
[9] = dose: 100.0 mg/kg/injection, schedule: Q01DX009 (ip), vehicle: Klucel (hydroxypropylcellulose) (HPC)
[10] = dose: 100.0 mg/kg/injection, schedule: Q04DX003 (ip), vehicle: saline
[11] = dose: 200.0 mg/kg/injection, schedule: Q04DX003 (ip), vehicle: saline

CCCCN(C)/N=N\c1[nH]ncc1C(N)=O
T/C (dose: 30.0 mg/kg/injection, schedule: Q01DX009 (ip), vehicle: saline with Tween-80): 139 % of control
T/C (dose: 32.5 mg/kg/injection, schedule: Q01DX009 (ip), vehicle: saline with Tween-80): 131 % of control
T/C (dose: 44.0 mg/kg/injection, schedule: Q01DX009 (ip), vehicle: saline with Tween-80): 134 % of control
T/C (dose: 100.0 mg/kg/injection, schedule: Q01DX009 (ip), vehicle: other): 140 % of control

CC(C)C(NC(=O)NCCCl)c1ccccc1 (configuration not stated)
survivor count [1]: 3 of 6

Cc1cc(C)c2nc(N)sc2c1
survivor count (dose: 200.0 mg/kg/injection, schedule: Q04DX003 (ip), vehicle: saline with Tween-80): 0 of 6
survivor count [2]: 0 of 6

COc1c2c([n+](C)c3c(OC)cccc13)OC(C(C)C)C2 (configuration not stated)
survivor count (dose: 2.0 mg/kg/injection, schedule: Q01DX009 (ip), vehicle: acetone): 6 of 6
survivor count (dose: 3.0 mg/kg/injection, schedule: Q01DX009 (ip), vehicle: saline): 2 of 6
survivor count (dose: 4.0 mg/kg/injection, schedule: Q04DX003 (ip), vehicle: Klucel (hydroxypropylcellulose) (HPC)): 4 of 6
survivor count (dose: 4.0 mg/kg/injection, schedule: Q04DX003 (ip), vehicle: acetone): 0 of 6
survivor count (dose: 5.94 mg/kg/injection, schedule: Q01DX001 (ip), vehicle: saline): 0 of 6
survivor count (dose: 8.0 mg/kg/injection, schedule: Q04DX003 (ip), vehicle: Klucel (hydroxypropylcellulose) (HPC)): 0 of 6
survivor count (dose: 9.0 mg/kg/injection, schedule: Q01DX001 (ip), vehicle: saline): 0 of 6
survivor count (dose: 13.5 mg/kg/injection, schedule: Q01DX001 (ip), vehicle: saline): 0 of 6

CCOP(=O)(NC12CC3CC(CC(C3)C1)C2)OCC
survivor count [3]: 1 of 6

Cc1ccc(NC(N)=S)cc1C
survivor count (dose: 200.0 mg/kg/injection, schedule: Q01DX009 (ip), vehicle: saline with Tween-80): 0 of 6
survivor count (dose: 400.0 mg/kg/injection, schedule: Q01DX009 (ip), vehicle: saline with Tween-80): 0 of 6

CN(CCC#N)C1=CCCCCC1
survivor count [4]: 2 of 6

COc1ccc(C(O)CN)cc1 (configuration not stated)
survivor count [5]: 5 of 6
survivor count (dose: 400.0 mg/kg/injection, schedule: Q01DX009 (ip), vehicle: saline): 4 of 6
survivor count [6]: 3 of 6

COC1CCC2CC3C4Cc5cn[nH]c5C5OC1C2C54CCN3C (configuration not stated)
survivor count [6]: 6 of 6

CC(CC(=O)O)NC(=O)OCc1ccccc1 (configuration not stated)
T/C [7]: 95, 101, 105 % of control
survivor count [7]: 3 of 3
T/C [8]: 92, 103, 104 % of control
survivor count [8]: 3 of 3
T/C (dose: 400.0 mg/kg/injection, schedule: Q04DX002 (ip), vehicle: saline with Tween-80): 95, 97, 98, 105 % of control

Cc1nc(NN)c(C(N)=O)nc1C
survivor count [5]: 0 of 6
survivor count (dose: 200.0 mg/kg/injection, schedule: Q01DX009 (ip), vehicle: saline): 0 of 6

Cc1ccccc1-n1c(C)cc(=O)c(C(=O)Cl)c1C
survivor count [1]: 0 of 6

CC1(C)c2ccccc2N(CCCN)c2ccccc21
survivor count (dose: 200.0 mg/kg/injection, schedule: Q01DX001 (ip), vehicle: saline): 2 of 4
survivor count [4]: 0 of 4

CCc1ccccc1NC(=O)NCc1ccc(C)c(C)c1
survivor count [9]: 6 of 6

CC1(C)N=C(N)N=C(N)N1c1cccc(CCCCC(=O)CCl)c1
survivor count [10]: 0 of 6
survivor count [11]: 0 of 6
survivor count [6]: 0 of 6

COC(=O)CC(C(=O)OC)N1CC1 (configuration not stated)
survivor count (dose: 150.0 mg/kg/injection, schedule: Q01DX001 (ip), vehicle: carboxymethylcellulose (CMC)): 3 of 6
survivor count (dose: 300.0 mg/kg/injection, schedule: Q01DX001 (ip), vehicle: carboxymethylcellulose (CMC)): 1 of 6

CC1CN=C(c2ccc(NC(=O)c3cccc(C(=O)Nc4ccc(C5=NCC(C)N5)cc4)c3)cc2)N1 (configuration not stated)
T/C (dose: 16.4 mg/kg/injection, schedule: Q01DX Z (ip), vehicle: carboxymethylcellulose (CMC)): 125 and 136 % of control
T/C (dose: 25.0 mg/kg/injection, schedule: Q01DX Z (ip), vehicle: carboxymethylcellulose (CMC)): 134 and 148 % of control
T/C (dose: 37.0 mg/kg/injection, schedule: Q01DX Z (ip), vehicle: carboxymethylcellulose (CMC)): 143 % of control
survivor count (dose: 55.5 mg/kg/injection, schedule: Q01DX Z (ip), vehicle: carboxymethylcellulose (CMC)): 0 of 6
survivor count (dose: 60.0 mg/kg/injection, schedule: Q01DX Z (ip), vehicle: carboxymethylcellulose (CMC)): 6 of 6
survivor count (dose: 83.3 mg/kg/injection, schedule: Q01DX Z (ip), vehicle: carboxymethylcellulose (CMC)): 6 of 6
survivor count (dose: 125.0 mg/kg/injection, schedule: Q01DX Z (ip), vehicle: carboxymethylcellulose (CMC)): 0 of 6
survivor count (dose: 187.5 mg/kg/injection, schedule: Q01DX Z (ip), vehicle: carboxymethylcellulose (CMC)): 0 of 6
survivor count (dose: 400.0 mg/kg/injection, schedule: Q## X010 (oral), vehicle: saline): 6 of 6

CCc1ccc(/C(C#N)=C/c2ccc(N(C)CCC#N)cc2)cc1
survivor count [9]: 6 of 6
survivor count (dose: 200.0 mg/kg/injection, schedule: Q01DX009 (ip), vehicle: Klucel (hydroxypropylcellulose) (HPC)): 6 of 6
survivor count [3]: 6 of 6

Fc1ccc(CSC(=S)Nc2ccc(Cl)c(Cl)c2)cc1
survivor count (dose: 300.0 mg/kg/injection, schedule: Q04DX003 (ip), vehicle: saline with Tween-80): 1 of 3

Cc1cc(N(CCCCl)CCCCl)ccc1C=Nc1cccc(Cl)c1
survivor count (dose: 100.0 mg/kg/injection, schedule: Q04DX003 (ip), vehicle: Klucel (hydroxypropylcellulose) (HPC)): 5 of 6
survivor count (dose: 200.0 mg/kg/injection, schedule: Q04DX003 (ip), vehicle: Klucel (hydroxypropylcellulose) (HPC)): 6 of 6
survivor count [1]: 6 of 6

CC(c1ccccc1)[As](C)(=O)O (configuration not stated)
survivor count [10]: 6 of 6
survivor count [11]: 4 of 6
survivor count [6]: 0 of 6

NC(=S)N/N=C/c1ccc(F)cn1
T/C (dose: 6.25 mg/kg/injection, schedule: Q01DX009 (ip), vehicle: saline with Tween-80): 129 % of control
T/C (dose: 12.5 mg/kg/injection, schedule: Q01DX009 (ip), vehicle: saline with Tween-80): 133 % of control
survivor count (dose: 25.0 mg/kg/injection, schedule: Q01DX009 (ip), vehicle: saline with Tween-80): 0 of 6 and 2 of 6
survivor count (dose: 28.1 mg/kg/injection, schedule: Q01DX009 (ip), vehicle: saline with Tween-80): 3 of 10
survivor count (dose: 50.0 mg/kg/injection, schedule: Q01DX001 (ip), vehicle: saline with Tween-80): 1 of 10
survivor count (dose: 50.0 mg/kg/injection, schedule: Q04DX002 (ip), vehicle: saline with Tween-80): 0 of 3
survivor count (dose: 75.0 mg/kg/injection, schedule: Q01DX001 (ip), vehicle: saline with Tween-80): 1 of 10
survivor count (dose: 112.5 mg/kg/injection, schedule: Q01DX001 (ip), vehicle: saline with Tween-80): 0 of 10

CCCCS(=O)CC(O)(c1ccccc1)c1ccccc1 (configuration not stated)
survivor count (dose: 400.0 mg/kg/injection, schedule: Q03DX002 (ip), vehicle: saline with Tween-80): 1 of 3

O=CNNC(=O)c1ccccn1
survivor count (dose: 200.0 mg/kg/injection, schedule: Q01DX001 (ip), vehicle: water): 2 of 4
survivor count (dose: 400.0 mg/kg/injection, schedule: Q01DX001 (ip), vehicle: water): 0 of 4

COc1ccc(C)cc1NC(=O)c1c(Br)c(Br)c(Br)c(Br)c1C(=O)O
survivor count [3]: 1 of 6

CC/C=C(CC)/C(CC)=C(\Br)CC
survivor count [6]: 6 of 6

Cc1ccc(S(=O)(=O)NC(Cc2ccccc2)C(=O)CCl)cc1 (configuration not stated)
survivor count [2]: 2 of 6
